No constants are given. Whether binding was seen depends on the method and setting. Binding seen in cells or lysates may run through a third protein. These calls come from enrichment with a bait or labelling near it, and not all partners need be listed.
T1: perilipin (human (endogenous in human preadipose cells)) (UniProt O60240)
T1 sequence: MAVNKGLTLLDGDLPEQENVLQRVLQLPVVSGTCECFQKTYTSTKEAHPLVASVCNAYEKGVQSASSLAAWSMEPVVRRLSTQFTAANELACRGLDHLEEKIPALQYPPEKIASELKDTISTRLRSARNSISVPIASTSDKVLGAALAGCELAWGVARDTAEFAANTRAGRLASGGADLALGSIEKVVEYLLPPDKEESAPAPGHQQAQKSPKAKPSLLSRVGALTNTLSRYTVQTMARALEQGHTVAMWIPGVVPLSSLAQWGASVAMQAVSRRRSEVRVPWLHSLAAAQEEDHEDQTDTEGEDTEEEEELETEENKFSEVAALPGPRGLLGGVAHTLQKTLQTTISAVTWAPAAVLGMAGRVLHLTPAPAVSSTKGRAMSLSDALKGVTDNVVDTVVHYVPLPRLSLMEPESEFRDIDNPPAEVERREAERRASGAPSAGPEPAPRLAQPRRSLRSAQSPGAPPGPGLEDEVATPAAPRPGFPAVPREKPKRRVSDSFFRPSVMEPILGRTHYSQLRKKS

By UniProt entry, the sequences of proteins in these tests, tags left out.
UniProt P08670: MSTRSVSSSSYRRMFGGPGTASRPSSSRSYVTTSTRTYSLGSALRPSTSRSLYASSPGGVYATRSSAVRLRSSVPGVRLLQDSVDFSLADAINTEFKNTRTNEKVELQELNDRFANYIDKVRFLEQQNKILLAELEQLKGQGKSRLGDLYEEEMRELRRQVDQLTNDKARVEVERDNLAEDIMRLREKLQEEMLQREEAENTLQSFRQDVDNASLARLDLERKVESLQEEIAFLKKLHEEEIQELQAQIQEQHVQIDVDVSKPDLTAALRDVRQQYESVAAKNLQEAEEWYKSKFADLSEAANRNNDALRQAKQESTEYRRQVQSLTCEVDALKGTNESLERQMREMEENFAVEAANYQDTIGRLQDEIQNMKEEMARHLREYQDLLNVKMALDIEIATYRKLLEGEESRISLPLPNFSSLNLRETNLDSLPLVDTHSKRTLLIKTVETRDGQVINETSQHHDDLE
UniProt Q9NP72: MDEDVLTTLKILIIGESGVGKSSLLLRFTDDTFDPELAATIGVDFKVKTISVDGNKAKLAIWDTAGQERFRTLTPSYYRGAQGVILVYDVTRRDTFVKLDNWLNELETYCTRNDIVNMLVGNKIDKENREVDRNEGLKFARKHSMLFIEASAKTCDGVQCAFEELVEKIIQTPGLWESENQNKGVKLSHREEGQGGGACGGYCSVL
UniProt Q7KZF4: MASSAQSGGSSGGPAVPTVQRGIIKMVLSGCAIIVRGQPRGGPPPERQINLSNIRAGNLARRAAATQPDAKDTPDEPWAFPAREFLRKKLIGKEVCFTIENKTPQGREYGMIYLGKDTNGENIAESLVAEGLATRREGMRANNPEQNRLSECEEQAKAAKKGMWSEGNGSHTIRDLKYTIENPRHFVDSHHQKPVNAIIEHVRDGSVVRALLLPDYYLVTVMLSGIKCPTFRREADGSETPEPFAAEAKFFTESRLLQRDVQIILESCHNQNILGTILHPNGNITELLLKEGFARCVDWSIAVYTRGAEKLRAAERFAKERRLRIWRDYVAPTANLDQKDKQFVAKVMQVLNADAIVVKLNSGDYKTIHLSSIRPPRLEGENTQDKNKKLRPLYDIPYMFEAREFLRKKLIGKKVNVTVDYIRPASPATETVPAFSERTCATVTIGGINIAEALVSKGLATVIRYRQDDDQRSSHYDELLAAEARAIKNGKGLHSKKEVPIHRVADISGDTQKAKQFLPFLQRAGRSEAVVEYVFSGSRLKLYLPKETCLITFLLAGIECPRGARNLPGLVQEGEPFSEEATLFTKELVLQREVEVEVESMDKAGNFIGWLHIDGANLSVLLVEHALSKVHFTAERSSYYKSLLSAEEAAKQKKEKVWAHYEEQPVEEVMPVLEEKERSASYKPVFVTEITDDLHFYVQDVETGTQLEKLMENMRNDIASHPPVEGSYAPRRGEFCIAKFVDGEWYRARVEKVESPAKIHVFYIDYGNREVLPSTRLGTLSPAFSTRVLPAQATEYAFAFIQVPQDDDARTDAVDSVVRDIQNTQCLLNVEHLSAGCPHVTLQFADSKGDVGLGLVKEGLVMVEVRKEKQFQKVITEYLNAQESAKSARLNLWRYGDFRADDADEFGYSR


What was measured:
[1] = molecular target: T1, perilipin (human (endogenous in human preadipose cells)); experiment: affinity purification with mass spectrometry; IPs from density gradient fraction LD2 of AIM-stimulated human preadipocytes with mab Peri112.17 or mab VIM 3B4; SDS-PAGE, silver staining, complete gel lanes cut, tryptic digests, MS
[2] = molecular target: vimentin (human (endogenous in human preadipose cells)) (UniProt P08670); experiment: as above

| Molecule | binding [1] | binding [2] |
| --- | --- | --- |
| Rab-18 (from UniProt Q9NP72 1-206) | binds | binds |
| N-terminal head sequence domain of vimentin (domain or fragment) | binds | – |
| 100 kD coactivator protein (from UniProt Q7KZF4 1-910) | binds | binds |
| TIP47 (protein, UniProt O60664 1-434) MSADGAEADGSTQVTVEEPVQQPSVVDRVASMPLISSTCDMVSAAYASTKESYPHIKTVCDAAEKGVRTLTAAAVSGAQPILSKLEPQIASASEYAHRGLDKLEENLPILQQPTEKVLADTKELVSSKVSGAQEMVSSAKDTVATQLSEAVDATRGAVQSGVDKTKSVVTGGVQSVMGSRLGQMVLSGVDTVLGKSEEWADNHLPLTDAELARIATSLDGFDVASVQQQRQEQSYFVRLGSLSERLRQHAYEHSLGKLRATKQRAQEALLQLSQVLSLMETVKQGVDQKLVEGQEKLHQMWLSWNQKQLQGPEKEPPKPEQVESRALTMFRDIAQQLQATCTSLGSSIQGLPTNVKDQVQQARRQVEDLQATFSSIHSFQDLSSSILAQSRERVASAREALDHMVEYVAQNTPVTWLVGPFAPGITEKAPEEKK | – | binds |
| S3-12 (protein, UniProt Q96Q06 1-1371) MSAPDEGRRDPPKPKGKTLGSFFGSLPGFSSARNLVANAHSSARARPAADPTGAPAAEAAQPQAQVAAHPEQTAPWTEKELQPSEKMVSGAKDLVCSKMSRAKDAVSSGVASVVDVAKGVVQGGLDTTRSALTGTKEVVSSGVTGAMDMAKGAVQGGLDTSKAVLTGTKDTVSTGLTGAVNVAKGTVQAGVDTTKTVLTGTKDTVTTGVMGAVNLAKGTVQTGVETSKAVLTGTKDAVSTGLTGAVNVARGSIQTGVDTSKTVLTGTKDTVCSGVTGAMNVAKGTIQTGVDTSKTVLTGTKDTVCSGVTGAMNVAKGTIQTGVDTSKTVLTGTKDTVCSGVTGAMNVAKGTIQTGVDTTKTVLTGTKNTVCSGVTGAVNLAKEAIQGGLDTTKSMVMGTKDTMSTGLTGAANVAKGAMQTGLNTTQNIATGTKDTVCSGVTGAMNLARGTIQTGVDTTKIVLTGTKDTVCSGVTGAANVAKGAVQGGLDTTKSVLTGTKDAVSTGLTGAVNVAKGTVQTGVDTTKTVLTGTKDTVCSGVTSAVNVAKGAVQGGLDTTKSVVIGTKDTMSTGLTGAANVAKGAVQTGVDTAKTVLTGTKDTVTTGLVGAVNVAKGTVQTGMDTTKTVLTGTKDTIYSGVTSAVNVAKGAVQTGLKTTQNIATGTKNTFGSGVTSAVNVAKGAAQTGVDTAKTVLTGTKDTVTTGLMGAVNVAKGTVQTSVDTTKTVLTGTKDTVCSGVTGAANVAKGAIQGGLDTTKSVLTGTKDAVSTGLTGAVKLAKGTVQTGMDTTKTVLTGTKDAVCSGVTGAANVAKGAVQMGVDTAKTVLTGTKDTVCSGVTGAANVAKGAVQTGLKTTQNIATGTKNTLGSGVTGAAKVAKGAVQGGLDTTKSVLTGTKDAVSTGLTGAVNLAKGTVQTGVDTSKTVLTGTKDTVCSGVTGAVNVAKGTVQTGVDTAKTVLSGAKDAVTTGVTGAVNVAKGTVQTGVDASKAVLMGTKDTVFSGVTGAMSMAKGAVQGGLDTTKTVLTGTKDAVSAGLMGSGNVATGATHTGLSTFQNWLPSTPATSWGGLTSSRTTDNGGEQTALSPQEAPFSGISTPPDVLSVGPEPAWEAAATTKGLATDVATFTQGAAPGREDTGLLATTHGPEEAPRLAMLQNELEGLGDIFHPMNAEEQAQLAASQPGPKVLSAEQGSYFVRLGDLGPSFRQRAFEHAVSHLQHGQFQARDTLAQLQDCFRLIEKAQQAPEGQPRLDQGSGASAEDAAVQEERDAGVLSRVCGLLRQLHTAYSGLVSSLQGLPAELQQPVGRARHSLCELYGIVASAGSVEELPAERLVQSREGVHQAWQGLEQLLEGLQHNPPLSWLVGPFALPAGGQ | binds | binds |

Source: paper PMC3938729
